Results are given in words; binding and its absence hold for the method and conditions named. Where a sequence is shown, tags or fusion partners need not be part of it.

The target in this assay is T1, GST-tagged NUSAP1 wild type (GST-NUSAP1-WT) (human) (UniProt Q9BXS6).
T1 sequence: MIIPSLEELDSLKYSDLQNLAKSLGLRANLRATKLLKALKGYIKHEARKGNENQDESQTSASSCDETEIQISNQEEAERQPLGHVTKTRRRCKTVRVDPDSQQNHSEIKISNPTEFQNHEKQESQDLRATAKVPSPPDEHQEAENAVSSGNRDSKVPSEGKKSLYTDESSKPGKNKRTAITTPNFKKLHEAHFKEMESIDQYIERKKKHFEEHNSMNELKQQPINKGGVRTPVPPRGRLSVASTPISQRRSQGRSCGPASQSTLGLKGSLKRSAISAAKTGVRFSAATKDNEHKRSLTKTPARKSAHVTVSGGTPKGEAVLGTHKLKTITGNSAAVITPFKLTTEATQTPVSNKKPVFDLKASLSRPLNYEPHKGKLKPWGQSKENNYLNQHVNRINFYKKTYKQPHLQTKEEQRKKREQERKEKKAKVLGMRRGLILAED
Put plainly: pull-down; GST-NUSAP1 on glutathione-Sepharose beads incubated with purified His-tagged prey at 4 °C for 4 h in 20 mM Tris-HCl pH 7.5, 150 mM NaCl, 0.5% Triton X-100; washed with 300 mM NaCl; blots with anti-GST and anti-His; both purified.

Consider “His-tagged Notch2 intracellular domain (N2ICD) (domain or fragment)”, for which the binding result is listed as “no binding”.

The record behind these values is PMC12092681.
